Results are given in words; binding and its absence hold for the method and conditions named. Binding seen in cells or lysates may run through a third protein. Here binding means that the protein was enriched with, or labelled near, the bait; the list need not be complete.
T1: Ala17 PABPN1-TurboID (UniProt Q8CCS6)
T1 sequence: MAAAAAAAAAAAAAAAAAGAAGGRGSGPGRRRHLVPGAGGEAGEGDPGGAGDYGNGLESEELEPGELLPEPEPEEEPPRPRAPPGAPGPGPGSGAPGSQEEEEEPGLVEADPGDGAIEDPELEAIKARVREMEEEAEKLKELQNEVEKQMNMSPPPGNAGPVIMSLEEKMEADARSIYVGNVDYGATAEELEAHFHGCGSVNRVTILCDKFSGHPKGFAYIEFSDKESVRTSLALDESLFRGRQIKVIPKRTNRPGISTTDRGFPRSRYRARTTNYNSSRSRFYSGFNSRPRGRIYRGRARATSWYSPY

Sequences of proteins named here, by UniProt entry; tags and fusion partners are left off. A change or cut given only in a name is not applied to a line headed by its entry. Residues count along the entry.
UniProt Q7TSC1: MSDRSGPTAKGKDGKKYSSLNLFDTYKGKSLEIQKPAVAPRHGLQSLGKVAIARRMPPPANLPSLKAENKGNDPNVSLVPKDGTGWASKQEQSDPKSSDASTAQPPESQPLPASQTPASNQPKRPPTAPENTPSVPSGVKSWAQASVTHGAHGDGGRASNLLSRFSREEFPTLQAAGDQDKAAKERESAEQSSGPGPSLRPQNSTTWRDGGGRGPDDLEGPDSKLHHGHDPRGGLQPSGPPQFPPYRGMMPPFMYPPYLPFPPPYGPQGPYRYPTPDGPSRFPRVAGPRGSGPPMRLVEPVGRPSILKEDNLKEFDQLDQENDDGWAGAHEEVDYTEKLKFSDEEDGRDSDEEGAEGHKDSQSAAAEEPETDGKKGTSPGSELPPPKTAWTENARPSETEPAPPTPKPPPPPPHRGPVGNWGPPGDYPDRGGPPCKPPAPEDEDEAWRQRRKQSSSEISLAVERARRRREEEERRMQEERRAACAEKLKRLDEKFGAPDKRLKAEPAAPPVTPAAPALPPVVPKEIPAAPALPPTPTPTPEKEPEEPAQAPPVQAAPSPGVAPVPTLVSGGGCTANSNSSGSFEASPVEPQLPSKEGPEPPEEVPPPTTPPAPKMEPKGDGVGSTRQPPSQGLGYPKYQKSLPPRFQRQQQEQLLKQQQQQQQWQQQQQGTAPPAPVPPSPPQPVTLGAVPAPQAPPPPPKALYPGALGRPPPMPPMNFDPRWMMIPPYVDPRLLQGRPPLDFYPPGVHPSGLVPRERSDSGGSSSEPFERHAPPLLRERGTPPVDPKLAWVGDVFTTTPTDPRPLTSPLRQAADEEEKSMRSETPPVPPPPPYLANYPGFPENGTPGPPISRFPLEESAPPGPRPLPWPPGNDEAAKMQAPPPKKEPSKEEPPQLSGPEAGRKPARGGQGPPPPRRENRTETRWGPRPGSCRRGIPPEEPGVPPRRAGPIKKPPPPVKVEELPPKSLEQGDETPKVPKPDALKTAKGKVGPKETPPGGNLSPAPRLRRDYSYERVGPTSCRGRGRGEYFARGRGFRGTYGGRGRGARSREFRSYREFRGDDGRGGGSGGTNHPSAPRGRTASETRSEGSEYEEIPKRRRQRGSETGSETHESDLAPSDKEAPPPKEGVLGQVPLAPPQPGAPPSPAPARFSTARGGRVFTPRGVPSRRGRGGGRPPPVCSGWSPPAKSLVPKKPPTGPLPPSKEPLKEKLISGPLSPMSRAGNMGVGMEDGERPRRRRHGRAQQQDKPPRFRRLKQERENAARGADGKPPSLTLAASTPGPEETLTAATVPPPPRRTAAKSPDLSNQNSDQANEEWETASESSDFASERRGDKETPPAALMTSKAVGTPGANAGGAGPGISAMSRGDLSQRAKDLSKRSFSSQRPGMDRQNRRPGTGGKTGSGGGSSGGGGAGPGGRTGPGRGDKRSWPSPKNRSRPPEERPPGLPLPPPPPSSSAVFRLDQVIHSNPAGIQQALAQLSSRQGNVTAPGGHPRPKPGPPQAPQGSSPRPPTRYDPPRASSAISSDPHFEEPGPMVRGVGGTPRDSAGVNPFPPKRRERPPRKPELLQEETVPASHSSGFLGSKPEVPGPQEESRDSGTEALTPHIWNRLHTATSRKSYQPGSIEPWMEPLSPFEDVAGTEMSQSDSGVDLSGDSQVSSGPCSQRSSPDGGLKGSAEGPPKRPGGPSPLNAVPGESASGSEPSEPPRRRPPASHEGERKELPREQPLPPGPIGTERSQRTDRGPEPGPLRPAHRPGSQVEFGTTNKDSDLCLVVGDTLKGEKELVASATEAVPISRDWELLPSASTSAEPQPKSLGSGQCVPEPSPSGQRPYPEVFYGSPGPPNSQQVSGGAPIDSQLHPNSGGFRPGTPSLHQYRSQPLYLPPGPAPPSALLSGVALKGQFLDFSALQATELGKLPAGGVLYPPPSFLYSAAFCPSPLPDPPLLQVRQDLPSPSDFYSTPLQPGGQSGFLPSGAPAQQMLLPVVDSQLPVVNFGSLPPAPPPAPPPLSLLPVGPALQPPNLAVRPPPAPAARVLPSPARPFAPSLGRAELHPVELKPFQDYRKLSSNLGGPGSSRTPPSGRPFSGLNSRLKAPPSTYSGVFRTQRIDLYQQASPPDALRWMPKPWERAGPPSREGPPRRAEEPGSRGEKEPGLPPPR
UniProt Q8BG05: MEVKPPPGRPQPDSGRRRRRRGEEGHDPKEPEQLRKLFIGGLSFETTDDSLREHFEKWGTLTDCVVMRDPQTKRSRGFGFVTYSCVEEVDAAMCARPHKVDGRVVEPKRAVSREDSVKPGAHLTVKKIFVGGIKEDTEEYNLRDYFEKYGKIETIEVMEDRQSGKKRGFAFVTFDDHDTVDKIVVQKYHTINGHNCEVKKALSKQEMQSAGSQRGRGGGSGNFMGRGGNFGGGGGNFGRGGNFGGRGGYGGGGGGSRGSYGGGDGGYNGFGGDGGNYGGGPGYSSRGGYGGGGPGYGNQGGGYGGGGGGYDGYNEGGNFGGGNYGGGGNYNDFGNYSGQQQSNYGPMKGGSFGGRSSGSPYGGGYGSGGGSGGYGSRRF
UniProt P11688, residues 45-1053: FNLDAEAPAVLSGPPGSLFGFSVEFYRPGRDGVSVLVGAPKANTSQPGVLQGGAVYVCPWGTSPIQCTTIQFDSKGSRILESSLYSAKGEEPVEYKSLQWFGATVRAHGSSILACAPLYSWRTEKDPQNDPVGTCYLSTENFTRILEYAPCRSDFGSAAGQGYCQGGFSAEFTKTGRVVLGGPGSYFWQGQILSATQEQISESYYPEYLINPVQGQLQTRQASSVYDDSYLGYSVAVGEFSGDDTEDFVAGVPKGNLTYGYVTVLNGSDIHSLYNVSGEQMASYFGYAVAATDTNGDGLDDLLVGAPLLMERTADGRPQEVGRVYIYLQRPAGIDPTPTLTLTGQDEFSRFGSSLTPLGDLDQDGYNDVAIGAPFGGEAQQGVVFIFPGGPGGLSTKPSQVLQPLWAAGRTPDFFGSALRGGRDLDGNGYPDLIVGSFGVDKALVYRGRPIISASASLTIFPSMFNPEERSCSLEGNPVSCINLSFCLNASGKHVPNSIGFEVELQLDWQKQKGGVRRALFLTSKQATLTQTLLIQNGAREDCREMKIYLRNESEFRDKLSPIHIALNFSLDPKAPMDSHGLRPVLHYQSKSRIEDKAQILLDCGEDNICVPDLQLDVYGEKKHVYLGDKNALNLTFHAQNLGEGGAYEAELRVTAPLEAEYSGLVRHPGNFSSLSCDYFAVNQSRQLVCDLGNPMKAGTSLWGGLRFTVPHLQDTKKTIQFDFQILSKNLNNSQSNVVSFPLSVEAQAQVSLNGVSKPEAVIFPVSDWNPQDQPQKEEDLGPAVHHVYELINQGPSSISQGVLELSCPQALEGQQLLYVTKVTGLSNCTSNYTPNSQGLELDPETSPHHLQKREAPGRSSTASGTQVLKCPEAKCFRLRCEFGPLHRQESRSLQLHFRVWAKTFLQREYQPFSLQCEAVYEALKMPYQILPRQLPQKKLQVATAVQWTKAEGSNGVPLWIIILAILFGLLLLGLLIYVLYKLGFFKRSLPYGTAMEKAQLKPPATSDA
UniProt P08122: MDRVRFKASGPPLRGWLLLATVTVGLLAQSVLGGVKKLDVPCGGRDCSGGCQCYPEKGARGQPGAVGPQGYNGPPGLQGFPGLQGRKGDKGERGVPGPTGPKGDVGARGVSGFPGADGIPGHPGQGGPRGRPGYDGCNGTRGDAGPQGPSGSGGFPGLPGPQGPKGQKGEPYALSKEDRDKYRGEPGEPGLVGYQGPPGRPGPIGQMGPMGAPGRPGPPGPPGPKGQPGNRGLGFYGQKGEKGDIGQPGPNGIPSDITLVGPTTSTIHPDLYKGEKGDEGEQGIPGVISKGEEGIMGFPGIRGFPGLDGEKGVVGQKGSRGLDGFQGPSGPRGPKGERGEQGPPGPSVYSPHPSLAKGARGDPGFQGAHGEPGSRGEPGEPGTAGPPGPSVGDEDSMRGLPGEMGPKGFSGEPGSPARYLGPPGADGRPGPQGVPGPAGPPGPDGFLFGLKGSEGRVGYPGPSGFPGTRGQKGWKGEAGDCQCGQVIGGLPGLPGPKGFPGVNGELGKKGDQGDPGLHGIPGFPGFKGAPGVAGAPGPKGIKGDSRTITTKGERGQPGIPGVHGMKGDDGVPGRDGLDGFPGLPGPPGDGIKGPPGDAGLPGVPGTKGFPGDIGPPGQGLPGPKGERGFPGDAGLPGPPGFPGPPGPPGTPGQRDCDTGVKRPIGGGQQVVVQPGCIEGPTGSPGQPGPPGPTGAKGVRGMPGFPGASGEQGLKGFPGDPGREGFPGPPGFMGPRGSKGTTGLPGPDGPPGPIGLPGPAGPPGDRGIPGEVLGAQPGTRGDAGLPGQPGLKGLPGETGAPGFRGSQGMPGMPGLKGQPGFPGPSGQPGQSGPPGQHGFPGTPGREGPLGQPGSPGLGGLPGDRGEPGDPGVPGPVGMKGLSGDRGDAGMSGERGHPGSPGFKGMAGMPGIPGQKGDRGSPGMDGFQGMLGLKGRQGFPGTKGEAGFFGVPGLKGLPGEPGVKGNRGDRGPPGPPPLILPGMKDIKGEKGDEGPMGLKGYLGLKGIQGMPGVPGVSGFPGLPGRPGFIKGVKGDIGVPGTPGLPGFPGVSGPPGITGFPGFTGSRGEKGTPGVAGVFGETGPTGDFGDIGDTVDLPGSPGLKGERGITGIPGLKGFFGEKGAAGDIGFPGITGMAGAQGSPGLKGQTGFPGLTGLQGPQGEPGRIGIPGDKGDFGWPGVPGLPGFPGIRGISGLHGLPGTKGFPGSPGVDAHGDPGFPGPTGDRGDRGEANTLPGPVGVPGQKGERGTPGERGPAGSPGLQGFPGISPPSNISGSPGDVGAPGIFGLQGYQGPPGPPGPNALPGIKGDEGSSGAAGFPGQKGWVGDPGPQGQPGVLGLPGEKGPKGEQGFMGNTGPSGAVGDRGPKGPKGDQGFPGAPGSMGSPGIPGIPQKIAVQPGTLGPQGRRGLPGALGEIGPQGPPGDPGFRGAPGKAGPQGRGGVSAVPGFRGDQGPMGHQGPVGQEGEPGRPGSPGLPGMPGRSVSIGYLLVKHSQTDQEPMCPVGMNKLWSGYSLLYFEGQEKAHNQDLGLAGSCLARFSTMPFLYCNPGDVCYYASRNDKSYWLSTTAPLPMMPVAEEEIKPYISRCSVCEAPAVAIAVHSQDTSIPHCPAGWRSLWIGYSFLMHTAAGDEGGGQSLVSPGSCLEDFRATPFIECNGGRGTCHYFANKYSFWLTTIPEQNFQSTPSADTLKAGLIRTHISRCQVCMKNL

T2: Ala10 PABPN1-TurboID (UniProt Q8CCS6)
T2 sequence: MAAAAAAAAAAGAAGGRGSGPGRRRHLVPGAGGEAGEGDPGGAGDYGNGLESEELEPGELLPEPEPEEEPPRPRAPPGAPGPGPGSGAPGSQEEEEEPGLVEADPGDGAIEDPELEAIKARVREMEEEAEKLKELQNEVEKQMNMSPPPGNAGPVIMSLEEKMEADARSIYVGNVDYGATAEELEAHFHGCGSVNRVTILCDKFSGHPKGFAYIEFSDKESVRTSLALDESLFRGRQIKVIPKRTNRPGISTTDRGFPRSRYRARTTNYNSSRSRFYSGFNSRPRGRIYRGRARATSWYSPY

B1: CPSF7 (protein, UniProt Q8BTV2 1-471)
chain: MSEGVDLIDIYADEEFNQDSEFNNTDQIDLYDDVLTAASQPSDDRSSSTEPPPPVRQEPAPKPNNKTPAILYTYSGLRSRRAAVYVGSFSWWTTDQQLIQVIRSIGVYDVVELKFAENRANGQSKGYAEVVVASENSVHKLLELLPGKVLNGEKVDVRPATRQNLSQFEAQARKRECVRVPRGGIPPRAHSRDSSDSADGRATPSENLVPSSARVDKPPSVLPYFNRPPSALPLMGLPPPPIPPPPPLSSSFGVPPPPPGIHYQHLMPPPPRLPPHLAVPPPGAIPPALHLNPAFFPPPNATVGPPPDTYMKASTPYNHHGSRDSGPPPSTVSEAEFEEIMKRNRAISSSAISKAVSGASAGDYSDAIETLLTAIAVIKQSRVANDERCRVLISSLKDCLHGIEAKSYSVGASGSSSRKRHRSRERSPSRSRESSRRHRDLLHNEDRHDDYFQERNREHERHRDRERDRHH
B2: PLAA (protein, UniProt P27612 1-794)
chain: MASGASRYRLSCSLPGHELDVRGLVCCLYPPGAFVSVSRDRTTRLWAPDSPNRGFTEMHCMSGHSNFVSCVCIIPSSDIYPHGLIATGGNDHNICIFSLDSPMPLYILKGHKDTVCSLSSGKFGTLLSGSWDTTAKVWLNDKCMMTLQGHTAAVWAVKILPEQGLMLTGSADKTIKLWKAGRCERTFLGHEDCVRGLAILSETEFLSCANDASIRRWQITGECLEVYFGHTNYIYSISVFPNSKDFVTTAEDRSLRIWKHGECAQTIRLPAQSIWCCCVLENGDIVVGASDGIIRVFTESEERTASAEEIKAFERELSQATIDSKTGDLGDINAEQLPGREHLSEPGTREGQTRLIRDGERVEAYQWSVSDGRWIKIGDVVGSSGANQQTSGKVLYEGKEFDYVFSIDVNEGGPSYKLPYNVSDDPWLVAYNFLQKNDLNPMFLDQVAKFIIDNTKGQTLGLGNTSFSDPFTGGGRYVPGTSGPSNTVQTADPFTGAGRYMPGSAGMDTTMTGVDPFTGNSAYRSAASKTVNIYFPKKEALTFDQANPTQILGKLKELNGTAPEEKKLTEDDLVLLEKILSLICNNSSEKPTAQQLQILWKAINWPEDIVFPALDILRLSIKHPNVNENFCNEKGDQFSSHLINLLNPKGKPANQLLALRTFCNCFVSQAGQKLMMSQRESLMSHAIELKSGSNKNIHIALATLTLNYSVCFHKDHNIEGKAQCLSVISTILEVVQDLEATFRLLVALGTLISDDSNAIQLAKSLGVDSQIKKYVSVSEPAKVSECCRLVLHLL
B3: PCNP (protein, UniProt Q6P8I4 1-178)
chain: MADGKAGEEKPEKPQRAGAAGGPEEEAEKPVKTKTVSSSNGGESSSRSAEKRSAEDEAADLPTKPTKMSKFGFAIGSQTARKASAISIRLGASKPKETVPTLAPKTLSVAAAFNEDEDSEPEEMPPEAKMRMKNIGRDTPTSAGPNSFNKGKHGFSDNQKLWERNIKSHLGNVHDQDN
B4: ACIN1 (protein, UniProt Q9JIX8 1-1338)
chain: MWGRKRPNSSGETRGILSGNRGVDYGSGRGQSGPFEGRWRKLPKMPEAVGTDPSTSRKMAELEEVTLDGKPLQALRVTDLKAALEQRGLAKSGQKSALVKRLKGALMLENLQKHSTPHAAFQPNSQIGEEMSQNSFIKQYLEKQQELLRQRLEREAREAAELEEASAESEDEMTHPEGVASLLPPDFQSSLNRPELELSTHSPRKSSSFSEEKGESDDEKPRKGERRSSRVRQAKSKLPEYSQTAEEEEDQETPSRNLRVRADRNLKIEEEEEEEEEEEDDDDEEEEEVDEAQKSREAEAPTLKQFEDEEGEERTRAKPEKVVDEKPLNIRSQEKGELEKGGRVTRSQEEARRSHLARQQQEKETQIVSLPQEENEVKSSQSLEEKSQSPSPPPLPEDLEKAPVVLQPEQIVSEEETPPPLLTKEASSPPTHIQLQEEMEPVEGPAPPVLIQLSPPNTDAGAREPLASPHPAQLLRSLSPLSGTTDTKAESPAGRVSDESVLPLAQKSSLPECSTQKGVESEREKSAPLPLTVEEFAPAKGITEEPMKKQSLEQKEGRRASHALFPEHSGKQSADSSSSRSSSPSSSSSPSRSPSPDSVASRPQSSPGSKQRDGAQARVHANPHERPKMGSRSTSESRSRSRSRSRSASSSSRKSLSPGVSRDSNTSYTETKDPSCGQEAAAPSGPQLQVLEPKEKAPTFSASVRGRHLSHPEPEQQHVIQRLQPEQGSPKKCEAEEAEPPAATQPQTSETQISHLLESERTHHTVEEKEEVTMDTSENRPENEVPEPPLPVADQVSNDERPEGGAEEEEKKESSMPKSFKRKISVVSATKGVQAGNSDTEGGQPGRKRRWGASTAATQKKPSISITTESLKSLIPDIKPLAGQEAVVDLHADDSRISEDETERNGDDGTHDKGLKICRTVTQVVPAEGQENGQREEEEEKEPEAELPAPPQVSVEVALPPPVEHEVKKVTLGDTLTRRSISQQKSGVSITIDDPVRTAQVPSPPRGKISNIVHISNLVRPFTLGQLKELLGRTGTLVEEAFWIDKIKSHCFVTYSTVEEAVATRTALHGVKWPQSNPKFLCADYAEQDELDYHRGLLVDRPSETKAEEQGAPRPLHPPPPPPVQPPPHPRAEQREQERAVREQWAEREREMERRERTRSEREWDRDKVREGPRSRSRSRDRRRKERAKSKEKKSEKKEKAQEEPPAKLLDDLFRKTKAAPCIYWLPLTESQIVQKEAEQAERAKEREKRRKEREEEEQKEREKEAERERNRQLEREKRREHSRERERDRERERDRGDRERERERDRDRGRERDRRDTKRHSRSRSRSTPVRDRGGRR
B5: RAB21 (protein, UniProt P35282 1-222)
chain: MAAAGGGAAAAAGRAYSFKVVLLGEGCVGKTSLVLRYCENKFNDKHITTLQASFLTKKLNIGGKRVNLAIWDTAGQERFHALGPIYYRDSNGAILVYDVTDEDSFQKVKNWVKELRKMLGNEICLCIVGNKIDLEKERHVSIQEAESYAESVGAKHYHTSAKQNKGIEELFLDLCKRMIETAQVDERAKGNGSSQAGAARRGVQIIDDEPQAQSSGGCCSSG
B6: LNPEP (protein, UniProt Q8C129 1-1025)
chain: MESFTNDRLQLPRNMIENSMFEEEPDVVDLAKEPCLHPLEPDEVEYEPRGSRLLVRGLGEHEMDEDEEDYESSAKLLGMSFMNRSSGLRNSAAGYRQSPDGTCSLPSARTLVICVFVIVVAVSVIMVIYLLPRCTFTKEGCHKTNQSAELIQPVATNGKVFPWAQIRLPTAIIPLCYELSLHPNLTSMTFRGSVTISLQALQDTRDIILHSTGHNISRVTFMSAVSSQEKQVEILEYPYHEQIAVVAPEPLLTGHNYTLKIEYSANISNSYYGFYGITYTDKSNEKKYFAATQFEPLAARSAFPCFDEPAFKATFIIKITRNEHHTALSNMPKKSSVPAEEGLIQDEFSESVKMSTYLVAFIVGEMRNLSQDVNGTLVSVYAVPEKIGQVHHALDTTIKLLEFYQTYFEIQYPLKKLDLVAIPDFEAGAMENWGLLTFREETLLYDNATSSVADRKLVTKIIAHELAHQWFGNLVTMQWWNDLWLNEGFATFMEYFSVEKIFKELNSYEDFLDARFKTMRKDSLNSSHPISSSVQSSEQIEEMFDSLSYFKGASLLLMLKSYLSEDVFRHAVILYLHNHSYAAIQSDDLWDSFNEVTDKTLDVKKMMKTWTLQKGFPLVTVQRKGTELLLQQERFFLRMQPESQPSDTSHLWHIPISYVTDGRNYSEYRSVSLLDKKSDVINLTEQVQWVKVNSNMTGYYIVHYAHDDWTALINQLKRNPYVLSDKDRANLINNIFELAGLGKVPLRMAFDLIDYLKNETHTAPITEALFQTNLIYNLLEKLGHMDLSSRLVARVHKLLQNQIQQQTWTDEGTPSMRELRSALLEFACAHSLENCTTMATNLFDSWMASNGTQSLPTDVMVTVFKVGARTEKGWLFLFSMYSSMGSEAEKNKILEALASSEDVHKLYWLMKSSLDGDIIRTQKLSLIIRTVGRHFPGHLLAWDFVKENWNKLVHKFHLGSYTIQSIVAGSTHLFSTKTHLSEVQAFFENQSEATLKLRCVQEALEVIQLNIQWMVRNLKTLSQWL

What follows are molecules tested against T1, Ala17 PABPN1-TurboID (assay: proximity labelling; PABPN1-TurboID at near-native levels in C2C12 myotubes (doxycycline, biotin); streptavidin capture; label-free quantitative nanoLC-MS/MS against the Mus musculus database; three experiments; strict hits in at least two of three replicates and not in wild type controls).

binding, binds:
PRRC2A (from UniProt Q7TSC1 1-2158)
HNRNPA3 (from UniProt Q8BG05 1-379)
B1
B2
B3
B4

Each molecule was assayed against T2, Ala10 PABPN1-TurboID in the same assay as above.

binding, binds:
ITGA5 (from UniProt P11688 45-1053)
COL4A2 (from UniProt P08122)
TNKS1BP1 (from UniProt P58871 1-1720)
B5
B6
